According to patent US20020151680A1:
Where a chain is given by its changes, count along the chain named. No constants are given. Whether binding was seen depends on the method and setting. Some results given as binding are weak or reduced against the parent protein; the word gives no strength.

The chains behind the UniProt entries cited, without tags or fusion partners. Residues count along the entry.
UniProt P17948, residues 27-331: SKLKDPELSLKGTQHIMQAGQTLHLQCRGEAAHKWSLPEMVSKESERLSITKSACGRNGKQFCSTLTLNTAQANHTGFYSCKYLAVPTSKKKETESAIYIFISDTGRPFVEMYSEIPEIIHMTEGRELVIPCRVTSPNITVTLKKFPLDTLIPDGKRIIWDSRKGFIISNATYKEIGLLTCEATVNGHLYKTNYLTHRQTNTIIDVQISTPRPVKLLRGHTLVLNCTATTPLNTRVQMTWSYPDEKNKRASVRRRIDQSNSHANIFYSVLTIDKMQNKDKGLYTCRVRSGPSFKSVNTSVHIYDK
UniProt P35968, residues 24-326: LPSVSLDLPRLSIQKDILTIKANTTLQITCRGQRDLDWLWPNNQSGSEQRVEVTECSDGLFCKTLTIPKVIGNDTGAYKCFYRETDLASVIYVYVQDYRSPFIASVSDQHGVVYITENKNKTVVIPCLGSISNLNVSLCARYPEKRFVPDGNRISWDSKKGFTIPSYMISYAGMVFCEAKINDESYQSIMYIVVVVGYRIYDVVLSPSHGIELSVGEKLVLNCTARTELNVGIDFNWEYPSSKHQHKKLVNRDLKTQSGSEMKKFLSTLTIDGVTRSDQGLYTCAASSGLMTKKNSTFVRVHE

B1: 62-1 (ligand)
chain: GQNHHEVVKFMDVYQRSYCHPREVCIDVGKEFGVATNTFFKPPCVSVYRCGGCCNDEGLECVPTEESNITMQIMRIKPHQGQHIGEMSFLQHNKCECRPKKD
B2: 63-1 (ligand)
chain: B1 chain with F32Y, G33P, V34D, A35E, T36I, N37E, T38Y, F39I
B3: 81-13 (ligand)
chain: AHYNTEILKFMDVYQRSYCHPIETLVDIFQEYPDEIEYIFKPSCVPLMRCGGCCNDEGLECVPTEESNITMQIMRITVPLSQGPKPVTISFANHTSCRCMSKLD
B4: 83-1 (ligand)
chain: AHYNTEILKFMDVYQRSYCHPIETLVDIFQEYPDEIEYIFKPPCVSVYRCGGCCNDEGLECVPTEESNITMQIMRIKPHQGQHIGEMSFLQHNKCECRPKKD
B5: 83-5 (ligand)
chain: B4 chain with L90A, Q91N, N93T, K94S, E96R, R98M, P99S, K101L
B6: 83-7 (ligand)
chain: B4 chain with D56S, E60Q, L90A, Q91N, N93T, K94S, E96R, R98M, P99S, K101L
B7: 83-3 (ligand)
chain: B4 chain with D56S, E60Q
B8: 13-13 (ligand)
chain: GQNHHEVVKFMDVYQRSYCHPIETLVDIFQEYPDEIEYIFKPPCVSVYRCGGCCNDEGLECVPTEESNITMQIMRITVPLSQGPKPVTISFANHTSCRCMSKLD
B9: 13-15 (ligand)
chain: B8 chain with D56S, E60Q
B10: 14-5 (ligand)
chain: GQNHHEVVKFMDVYQRSYCHPIETLVDIFQEFGVATNTFFKPSCVPLMRCGGCCNDEGLECVPTEESNITMQIMRIKPHQGQHIGEMSFANHTSCRCMSKLD
B11: 41-1 (ligand)
chain: AHYNTEILKFMDVYQRSYCHPREVCIDVGKEYPDEIEYIFKPSCVPLMRCGGCCNDEGLECVPTEESNITMQIMRIKPHQGQHIGEMSFLQHNKCECRPKKD
B12: 83-9 (ligand)
chain: AHYNTEILKFMDVYQRSYCHPIETLVDIFQEYPDEIEYIFKPPCVSVYRCGGCCNDEGLECVPTEESNITMQIMRITVPLSQGPKPVTISFLQHNKCECRPKKD
B13: 83-13 (ligand)
chain: B3 chain with S43P, P46S, L47V, M48Y
B14: 13-11 (ligand)
chain: B12 chain with A1G, H2Q, Y3N, N4H, T5H, I7V, L8V, D56S, E60Q
B15: 13-9 (ligand)
chain: B12 chain with A1G, H2Q, Y3N, N4H, T5H, I7V, L8V
B16: 81-9 (ligand)
chain: B12 chain with P43S, S46P, V47L, Y48M
B17: 83-11 (ligand)
chain: B12 chain with D56S, E60Q
B18: 11-9 (ligand)
chain: GQNHHEVVKFMDVYQRSYCHPIETLVDIFQEYPDEIEYIFKPSCVPLMRCGGCCNDEGLECVPTEESNITMQIMRITVPLSQGPKPVTISFLQHNKCECRPKKD
B19: 11-13 (ligand)
chain: B8 chain with P43S, S46P, V47L, Y48M
B20: 82-5 (ligand)
chain: AHYNTEILKFMDVYQRSYCHPIETLVDIFQEFGVATNTFFKPPCVSVYRCGGCCNDEGLECVPTEESNITMQIMRIKPHQGQHIGEMSFANHTSCRCMSKLD
B21: 84-5 (ligand)
chain: B20 chain with P43S, S46P, V47L, Y48M
B22: 84-1 (ligand)
chain: AHYNTEILKFMDVYQRSYCHPIETLVDIFQEFGVATNTFFKPSCVPLMRCGGCCNDEGLECVPTEESNITMQIMRIKPHQGQHIGEMSFLQHNKCECRPKKD
B23: 53-7 (ligand)
chain: AHYNTEILKSIDNEWRKTQCMPIETLVDIFQEYPDEIEYIFKPPCVSVYRCGGCCNSEGLQCVPTEESNITMQIMRIKPHQGQHIGEMSFANHTSCRCMSKLD
B24: 33-1 (ligand)
chain: GQNHHEVVKSIDNEWRKTQCMPIETLVDIFQEYPDEIEYIFKPPCVSVYRCGGCCNDEGLECVPTEESNITMQIMRIKPHQGQHIGEMSFLQHNKCECRPKKD
B25: 53-1 (ligand)
chain: B24 chain with G1A, Q2H, N3Y, H4N, H5T, V7I, V8L
B26: 33-3 (ligand)
chain: B24 chain with D57S, E61Q
B27: 23-12 (ligand)
chain: AHYNTEILKSIDNEWRKTQCMPREVCIDVGKEYPDEIEYIFKPPCVSVYRCGGCCNSEGLQCMNTSTSYLSKTLFEITVPLSQGPKPVTISFLQHNKCECRPKKD
B28: 63-3 (ligand)
chain: B1 chain with F32Y, G33P, V34D, A35E, T36I, N37E, T38Y, F39I, D56S, E60Q
B29: 73-7 (ligand)
chain: GQNHHEVVKSIDNEWRKTQCMPREVCIDVGKEYPDEIEYIFKPPCVSVYRCGGCCNSEGLQCVPTEESNITMQIMRIKPHQGQHIGEMSFANHTSCRCMSKLD
B30: 74-8 (ligand)
chain: GQNHHEVVKSIDNEWRKTQCMPREVCIDVGKEFGVATNTFFKPSCVPLMRCGGCCNSEGLQCMNTSTSYLSKTLFEIKPHQGQHIGEMSFANHTSCRCMSKLD
B31: 14-7 (ligand)
chain: B10 chain with D56S, E60Q
B32: 62-8 (ligand)
chain: GQNHHEVVKFMDVYQRSYCHPREVCIDVGKEFGVATNTFFKPPCVSVYRCGGCCNSEGLQCMNTSTSYLSKTLFEIKPHQGQHIGEMSFANHTSCRCMSKLD
B33: 63-6 (ligand)
chain: B32 chain with F32Y, G33P, V34D, A35E, T36I, N37E, T38Y, F39I, S56D, Q60E
B34: 33-9 (ligand)
chain: GQNHHEVVKSIDNEWRKTQCMPIETLVDIFQEYPDEIEYIFKPPCVSVYRCGGCCNDEGLECVPTEESNITMQIMRITVPLSQGPKPVTISFLQHNKCECRPKKD
B35: 73-15 (ligand)
chain: GQNHHEVVKSIDNEWRKTQCMPREVCIDVGKEYPDEIEYIFKPPCVSVYRCGGCCNSEGLQCVPTEESNITMQIMRITVPLSQGPKPVTISFANHTSCRCMSKLD
B36: 74-10 (ligand)
chain: GQNHHEVVKSIDNEWRKTQCMPREVCIDVGKEFGVATNTFFKPSCVPLMRCGGCCNDEGLECMNTSTSYLSKTLFEITVPLSQGPKPVTISFLQHNKCECRPKKD
B37: 74-12 (ligand)
chain: B36 chain with D57S, E61Q
B38: 62-10 (ligand)
chain: GQNHHEVVKFMDVYQRSYCHPREVCIDVGKEFGVATNTFFKPPCVSVYRCGGCCNDEGLECMNTSTSYLSKTLFEITVPLSQGPKPVTISFLQHNKCECRPKKD
B39: 62-13 (ligand)
chain: GQNHHEVVKFMDVYQRSYCHPREVCIDVGKEFGVATNTFFKPPCVSVYRCGGCCNDEGLECVPTEESNITMQIMRITVPLSQGPKPVTISFANHTSCRCMSKLD

The binders below were run against VEGFR-1-Fc (UniProt P17948) (assay: 35S IP, receptor-Fc).

binding, binds:
B1
B2
B3
B4
B5
B6
B7
B8
B9
B10
B11
B12
B13
B14
B15
B16
B17
B18
B19
B20
B21
B22

Each binder was assayed against VEGFR-2-Fc (UniProt P35968) (assay: 35S IP, receptor-Fc).

binding, binds:
B23
B24
B25
B26
B27
B28
B2
B29
B30
B4
B5
B6
B7
B31
B32
B33
B34
B35
B17
B36
B37
B38
B39
